This passage reports binding results from PMC4598566.

Amino acid sequences for entries named in this document (tags omitted).
UniProt P60484: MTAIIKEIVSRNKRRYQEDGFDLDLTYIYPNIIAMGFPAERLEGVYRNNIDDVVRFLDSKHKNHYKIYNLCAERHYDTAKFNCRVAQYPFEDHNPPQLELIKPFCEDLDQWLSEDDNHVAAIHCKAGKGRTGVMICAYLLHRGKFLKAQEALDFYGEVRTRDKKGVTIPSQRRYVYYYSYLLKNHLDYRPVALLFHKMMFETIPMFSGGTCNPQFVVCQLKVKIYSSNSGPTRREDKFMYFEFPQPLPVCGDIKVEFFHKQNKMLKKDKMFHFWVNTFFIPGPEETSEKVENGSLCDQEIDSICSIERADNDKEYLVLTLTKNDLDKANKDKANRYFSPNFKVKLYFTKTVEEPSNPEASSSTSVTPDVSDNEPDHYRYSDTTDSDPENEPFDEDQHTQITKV
UniProt O00459: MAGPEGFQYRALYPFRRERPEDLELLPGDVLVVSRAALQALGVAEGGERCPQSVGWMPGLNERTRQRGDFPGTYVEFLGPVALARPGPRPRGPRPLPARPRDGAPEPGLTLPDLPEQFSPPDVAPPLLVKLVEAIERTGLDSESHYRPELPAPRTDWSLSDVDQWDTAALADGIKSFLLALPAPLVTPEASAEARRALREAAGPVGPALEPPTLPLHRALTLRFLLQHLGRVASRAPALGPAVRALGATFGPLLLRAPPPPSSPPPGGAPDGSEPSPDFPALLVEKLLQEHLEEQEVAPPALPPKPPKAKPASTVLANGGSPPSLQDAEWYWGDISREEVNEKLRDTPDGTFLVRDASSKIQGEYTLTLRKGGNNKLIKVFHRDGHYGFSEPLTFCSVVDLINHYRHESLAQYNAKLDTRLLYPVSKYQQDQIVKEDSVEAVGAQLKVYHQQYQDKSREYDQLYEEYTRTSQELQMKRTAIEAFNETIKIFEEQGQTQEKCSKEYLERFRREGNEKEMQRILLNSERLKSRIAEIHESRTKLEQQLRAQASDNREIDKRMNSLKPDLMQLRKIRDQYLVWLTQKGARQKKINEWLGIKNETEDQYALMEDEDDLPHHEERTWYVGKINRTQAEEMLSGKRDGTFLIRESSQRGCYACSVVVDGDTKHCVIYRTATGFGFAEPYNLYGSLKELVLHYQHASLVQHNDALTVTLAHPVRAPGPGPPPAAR

The assay deals with PTEN fused to Renilla luciferase (UniProt P60484). As to the kind of experiment: LUMIER; automated luminescence-based mammalian interactome screen; Renilla luciferase-PTEN as bait against a collection of eighty 3Flag-tagged preys; luminescence intensity ratio, average of two independent screens.

No constants are given. Whether binding was seen depends on the method and setting. Some results given as binding are weak or reduced against the parent protein; the word gives no strength.

Turning to “3Flag-tagged PIK3R2 (LUMIER prey) (from UniProt O00459 1-728)”, the binding entry is “binds”.
